# Test results reported in PubChem BioAssay AID1347076 (National Center for Advancing Translational Sciences (NCATS), 2019).
# Hit rate of the full screen: of about 400,000 compounds, about 13,000 (3.2%) were called active. The shares of active, inactive and inconclusive entries below differ from those in the screen. The call rests on the fitted dose curve; in most records, active means well fitted cell-killing curve with a large enough effect; inconclusive means small, poorly fitted or top-dose-only effect, or effect the other way; inactive means flat fitted curve, though single readings scatter. Potencies beside an inconclusive call are fits to weak or partial responses and may not hold up.
# Assay: qHTS assay for MDR1-selective chemotherapeutics: Primary screen using the drug-selected MDR subline cells KB-V1; further: nearly all actives have a fitted effect of over 60% in size
# Conditions: KB-V1 MDR cells viability, CellTiter-Glo, 72 h; activity change, negative = cytotoxicity: at 46.1 µM (top of the series)
# Method in brief: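 In this primary screen, KB-V1 cells overexpressing P-gp are incubated with library compounds (lowest to highest concentration) for 72 h at 37 degrees C before a luminescent ATP viability read.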
# On the % scale 0 is the no-effect control and ±100 the full control effect; potency means the concentration at half of the fitted maximal effect.
Compound,"activity change, negative = cytotoxicity",Potency
O=C1NC(=O)C(c2ccccc2)(c2ccc(O)cc2)N1 (stereo not drawn),inactive: 25.5%,–
O=C(Cn1cnc2ccccc2c1=O)c1ccc(Br)cc1,–,"inconclusive: 29.1 µM [cytotoxic, partial curve, poor fit]"
CCN=c1scc(C)n1/N=C/c1cc(Br)c(O)c(Br)c1,–,"inconclusive: 18.4 µM [cytotoxic, single point]"
O=C1NC2=C(C(=O)OC2)C(c2ccc(OC(F)(F)F)cc2)N1 (stereo not drawn),inactive: 8.97%,–
Cc1nc(-n2nnc3ccccc32)c2c3c(sc2n1)CCCC3,–,active: 13 µM
O=C(CN1CCCC1)Nc1c2c(cc3c1CCC3)CCC2,–,"inconclusive: 8.2 µM [cytotoxic, partial curve]"
CC(OC(=O)c1ccncc1)C(=O)NC1CCCC1 (stereo not drawn),inactive: -2.55%,–
C#CC[N+](C)(C)C(C#Cc1ccccc1)CC=C (stereo not drawn),–,"inconclusive: 14.6 µM [rising, partial curve, poor fit]"
CCn1c(C)nnc1SCC(=O)Nc1cccc(Cl)c1,–,"inconclusive: 29.1 µM [rising, partial curve, poor fit]"
COC(=O)[C@]12CCCCC=C1N(Cc1ccccc1)C(=O)[C@H](CC(=O)NCCC(C)C)C2,–,"inconclusive: 5.17 µM [cytotoxic, full curve]"
CC(C)CCNC(=O)C1CC(c2ccccc2[N+](=O)[O-])=NO1 (stereo not drawn),inactive: 9.87%,–
COC(=O)C1=C(C)NC(=O)C1(NC(=O)c1cc(OC)c(OC)c(OC)c1)C(F)(F)F (stereo not drawn),inactive: 9.41%,–
O=C(Nc1ccc(C(=O)N2CCCCC2)cc1)c1ccccc1,inactive: -27.5%,–
CC1=C(C(=O)OC2CCCC2)C(c2coc3ccccc3c2=O)C2=C(CC(C)(C)CC2=O)N1 (stereo not drawn),inactive: -5.76%,–
COc1ccc(OC)c(C(c2nnnn2CCc2ccccc2)N2CCN(c3ccccc3)CC2)c1 (stereo not drawn),inactive: -7.03%,–
CSc1ccc(C(=O)C2CCCN(C(=O)c3ccsc3)C2)cc1 (stereo not drawn),–,"inconclusive: 9.2 µM [cytotoxic, partial curve]"
Cc1cc(C)nc(NC(=NCCc2c[nH]c3ccc(Cl)cc23)NC(=O)c2ccccc2C)n1,inactive: -29.5%,–
CC(C)NC(=O)COC(=O)c1ccccc1CSC1=NCCS1,inactive: -18.1%,–
COc1ccccc1NC(=O)C/C(N)=N/OCC(=O)Nc1cccc(Cl)c1,–,active: 18.4 µM
C/C=C/c1cccc(-c2nc(C(=O)N3CCN(C)CC3)cc3c2[C@@H](CCO)N(C(=O)NC(C)C)C3)c1,inactive: -12.9%,–
Cc1ccc(S(=O)(=O)N(C)c2ccc(C(=O)Nc3ccc(C)cn3)cc2)cc1,–,"inconclusive: 18.4 µM [cytotoxic, single point]"
CCCCNc1c(-c2ccc(SC(C)CC)cc2)nc2ccc(Cl)cn12 (stereo not drawn),–,"inconclusive: 13 µM [cytotoxic, partial curve]"
CC(C)C[C@H]1CNC(=O)C(=O)N1C[C@@H]1CCCN1C[C@H](Cc1ccccc1)N1C[C@H](CC(C)C)N(CC2CCCCCC2)C(=O)C1=O,inactive: 1.82%,–
CCC(=O)N1CCN(c2ccc(NC(=O)c3cc4ccccc4o3)cc2Cl)CC1,–,active: 9.2 µM
CCOC(=O)NCc1ccc2c(c1)OCO2,inconclusive: 2.24%,–

Compound,"activity change, negative = cytotoxicity",Potency
Cc1cccc(-n2c(Cc3ccccc3)nnc2SCc2nc(-c3cccs3)no2)c1,inactive: -5.67%,–
C#CCN(CC=C)C(=O)c1ccc2nc(C3CCCCC3)oc2c1,–,"inconclusive: 6.51 µM [cytotoxic, partial curve, poor fit]"
Cc1cc(C)cc(NC(=S)N(Cc2ccc(Cl)cc2)Cc2ccc(C(=O)O)cc2)c1,inactive: 0%,–
COc1ccc(C(O)P(=O)(OCc2ccccc2)c2ccc(N(C)C)cc2)cc1 (stereo not drawn),–,"inconclusive: 4.11 µM [cytotoxic, partial curve, poor fit]"
CCOC(=O)C1CCN(Cc2oc(CO)cc(=O)c2O)CC1,–,"inconclusive: 29.1 µM [rising, single point]"
O=C(CN1C(=O)COc2ccc(S(=O)(=O)N3CCCC3)cc21)N1CCN(c2ccc(F)cc2)CC1,–,"inconclusive: 3.66 µM [cytotoxic, full curve]"
CCOc1ccccc1NC(=O)/C=C/c1ccccc1[N+](=O)[O-],–,"inconclusive: 8.2 µM [cytotoxic, partial curve]"
O=C(CSc1ccc(-c2ccco2)nn1)N1CCCCCC1,–,"inconclusive: 10.3 µM [cytotoxic, partial curve]"
COC(=O)c1ccc(NC(=O)CSCc2ccccc2C)cc1,–,"inconclusive: 23.1 µM [cytotoxic, single point]"
COC(=O)c1sc(NC(=O)COc2ccc(OC)cc2)nc1C,–,"inconclusive: 5.8 µM [cytotoxic, full curve, poor fit]"
COC(=O)c1c(C(=O)OC)c2ccccn2c1C(=O)c1ccccc1,–,"inconclusive: 14.6 µM [cytotoxic, partial curve, poor fit]"
Oc1ccc(N=Nc2ccc3c(c2)OCCO3)c2cccnc12,–,"inconclusive: 1.3 µM [cytotoxic, full curve, poor fit]"
O=C(NC1CCCCC1)C1CCCN(c2nnnn2-c2ccccc2)C1 (stereo not drawn),–,active: 16.4 µM
CCOC(=O)CCCNC(=O)COC(=O)[C@@H]1CCCN1S(=O)(=O)c1ccc(Cl)cc1,–,"inconclusive: 20.6 µM [rising, single point]"
COc1ccc(C(O)c2nc(-c3cncnc3)cs2)cc1 (stereo not drawn),inactive: 5.43%,–
C=CCn1c(C)cc(C(=O)COc2ccc(C)nc2[N+](=O)[O-])c1C,–,"inconclusive: 29.1 µM [cytotoxic, single point]"
CC(=O)c1ccc(NC(=O)c2cc(Cl)nc3ccccc23)cc1,inactive: -0.671%,–
CSc1nc(-c2ccccc2)c(-c2ccccc2)[nH]1,–,active: 11.6 µM
Cc1ccc(S(=O)(=O)N2CCCCC2)cc1NC(=O)COC(=O)CN1C(=O)NC2(CC(C)CC(C)(C)C2)C1=O (stereo not drawn),–,"inconclusive: 29.1 µM [rising, single point]"
Cc1cccc(C(=O)Nc2scc(CC(C)C)c2C(=O)O)c1,–,"inconclusive: 29.1 µM [cytotoxic, single point]"
O=c1c2ccccc2oc2cc(NCCCN3CCOCC3)ccc12,inactive: -9.36%,–
OCCCn1c(-c2ccccc2)csc1=Nc1ccccc1,–,"inconclusive: 20.6 µM [cytotoxic, single point]"
Cc1ccc(C)c(N2CCN(C(=O)Cc3ccc(NC4=NC5CS(=O)(=O)CC5S4)cc3)CC2)c1 (stereo not drawn),–,"inconclusive: 7.31 µM [rising, partial curve, poor fit]"
N/C(=N\OC(=O)CCC(=O)O)c1ncc(C(F)(F)F)cc1Cl,–,"inconclusive: 0.517 µM [rising, full curve, poor fit]"
COC(=O)c1ccc(N)c(N=CC2=C(O)CC(C)(C)CC2=O)c1,inactive: -1.3%,–

Compound,"activity change, negative = cytotoxicity",Potency
N#CC(=C=[N-])c1nc2ccccc2nc1-[n+]1cccc(NC(=O)c2cccs2)c1,–,"inconclusive: 29.1 µM [rising, single point]"
COc1cccc(NC(=O)CSc2ccc3nnc(CCNC(=O)c4ccccc4)n3n2)c1,–,"inconclusive: 25.9 µM [rising, single point]"
Cn1nc(-c2ccccc2F)c2cc(C(=O)NCCc3ccc(Cl)cc3)sc21,–,"inconclusive: 29.1 µM [cytotoxic, single point]"
Nc1nc(CN2CCN(Cc3ccccc3)CC2)nc(Nc2ccccc2)n1,–,active: 20.6 µM
Brc1ccc(CNc2ccc3ncccc3c2)cc1,–,"inconclusive: 29.1 µM [cytotoxic, single point]"
COC(=O)C1CCN(S(=O)(=O)Cc2ccccc2Cl)CC1,inactive: -1.53%,–
Cc1ccc(-c2nc(C=Nc3ccc(O)cc3)c(O)o2)cc1,–,"inconclusive: 29.1 µM [cytotoxic, single point]"
O=C(Nc1ccc(C(F)(F)F)cc1Cl)c1ccc(Cn2cc(Br)cn2)o1,inactive: -10.7%,–
CC(=O)N1C[C@@H](CO)[C@@H](N(C)C(=O)c2ccco2)C[C@H]1c1ccccc1,inactive: 12.2%,–
O=C(NCCCn1ccnc1)NC(C(F)(F)F)C(F)(F)F,–,"inconclusive: 29.1 µM [rising, single point]"
CN(C)c1ccc(S(=O)(=O)NCC(=O)N2CCN(c3ccccc3)CC2)cc1[N+](=O)[O-],–,"inconclusive: 29.1 µM [cytotoxic, single point]"
O=[N+]([O-])c1cccnc1N/N=C/c1ccccc1O,–,"inconclusive: 0.517 µM [cytotoxic, full curve, poor fit]"
Cc1ccc(C(=O)CSc2nnc(COc3ccc(C#N)cc3)n2-c2ccccc2)cc1,inactive: 1.17%,–
CC(=O)N1N=C(C)CC1c1ccc(OCc2ccccc2)cc1 (stereo not drawn),inactive: -3.86%,–
CCCCN1C(=O)c2[nH]nc(-c3ccccc3O)c2C1c1ccc(C(C)(C)C)cc1 (stereo not drawn),–,"inconclusive: 23.1 µM [cytotoxic, partial curve, poor fit]"
CCCOc1ccc(/C=N/Nc2ccccc2[N+](=O)[O-])c(O)c1,–,"inconclusive: 29.1 µM [cytotoxic, single point]"
CCCCCCCN1CCN=C1N(C)C,–,"inconclusive: 29.1 µM [rising, single point]"
C=C(C)C1CC=C(C)/C(=N/NC(=O)c2cccc([N+](=O)[O-])c2)C1 (stereo not drawn),–,"inconclusive: 18.4 µM [cytotoxic, partial curve]"
COc1ccc(CCNC(=O)CCCc2ccccc2)cc1OC,inactive: 0.166%,–
O/N=C(/C[n+]1csc2ccccc21)c1ccccc1,inactive: 0%,–
CC1CCN(c2ccccc2NC(=O)c2ccc([N+](=O)[O-])o2)CC1,inactive: 5.2%,–
CCCCN(CCCC)CCCNC(=O)c1ccc2nc(-c3ccccc3NC(C)=O)c(=O)[nH]c2c1,inactive: 7.31%,–
COc1cc(CNc2nc3c(C)cc(C)cc3s2)ccc1O,–,"inconclusive: 20.6 µM [cytotoxic, single point]"

# Record cards, from the list above:
# `CC(=O)N1N=C(C)CC1c1ccc(OCc2ccccc2)cc1` (stereo not drawn) as listed: activity change, negative = cytotoxicity: inactive: -3.86%
# `CCCOc1ccc(/C=N/Nc2ccccc2[N+](=O)[O-])c(O)c1` as listed: Potency: inconclusive: 29.1 µM [cytotoxic, single point]
# `CN(C)c1ccc(S(=O)(=O)NCC(=O)N2CCN(c3ccccc3)CC2)cc1[N+](=O)[O-]` as listed: Potency: inconclusive: 29.1 µM [cytotoxic, single point]
# `Brc1ccc(CNc2ccc3ncccc3c2)cc1` as listed: Potency: inconclusive: 29.1 µM [cytotoxic, single point]
